# ± gives the standard deviation of the averaged measurements. The list shows a part of the results, in another mix than the full data.
# Target: A0A0A0MT26|P13637 and related entries (UniProt P13637)
# Assay: NP40-soluble protein abundance relative to vehicle (solubility fold change) (ratio); higher = more soluble protein in presence of AMP-PNP
# Procedure, shortened: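 Jurkat crude lysate (Dounce-homogenised) was treated with eight concentrations from 0.1 to 10 mM for 10 min at room temperature, then 3 min at 37 °C. It was solubilised with 0.8% NP40 and benzonase (60 min, 4 °C) and ultracentrifuged, and the supernatant was TMT-labelled for LC-MS/MS. Intensities were vsn-normalised, and the value is the fold change against the NP40-processed vehicle per replicate, from three independent experiments.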
compound,measurement,setting,value
Nc1ncnc2c1ncn2[C@@H]1O[C@H](COP(=O)(O)OP(=O)(O)NP(=O)(O)O)[C@@H](O)[C@H]1O [adenylyl imidodiphosphate],NP40-soluble protein abundance,concentration: 1mM,1.02 ± 0.032
same,NP40-soluble protein abundance,concentration: 2mM,1.05 ± 0.022
same,NP40-soluble protein abundance,concentration: 4mM,0.999 ± 0.044
same,NP40-soluble protein abundance,concentration: 6mM,0.968 ± 0.012
same,NP40-soluble protein abundance,concentration: 8mM,0.951 ± 0.026
same,NP40-soluble protein abundance,concentration: 10mM,0.948 ± 0.035

# — the supplement of paper PMC6411743
